Results are given in words; binding and its absence hold for the method and conditions named. Binding seen in cells or lysates may run through a third protein. A result given as binding can be weak or reduced; the word gives no strength. Where a sequence is shown, tags or fusion partners need not be part of it. Values belong to the binder of their own block, whether it stands above or below them.
Target: 3XFLAG-Arrow (Drosophila Arrow, ortholog of the Wnt receptor LRP6) (Drosophila)
Test: co-IP; HEK293T cells transfected with V5-tagged Usp46, Uaf1 and Wdr20 and FLAG-Arrow or empty vector; lysed after 48 h in NDLB (50 mM Tris pH 7.5, 300 mM NaCl, 1% Triton X-100, 5 mM EDTA, 0.2 g/L sodium azide); FLAG-Arrow precipitated with FLAG M2 affinity agarose, washed five times in NDLB; V5 immunoblot

binding: binds
B1: V5-tagged Drosophila Usp46 (Usp12-46) (enzyme, UniProt Q9VCT9 1-424)
chain: MGANVSQLEREIGSDLFPPNEHYFGLVNFGNTCYSNSVLQALYFCKPFREKVLEYKAKNKRPKETLLSCLADLFYSIATQKKKVGSIAPKKFITRLRKEKEEFDNYMQQDAHEFLNFLINHINEIILAERNAGPSNGNPKATNQGGSTSAMASSIASKSSSTSNSNSNSNSTTNSNGNSSNSTGSLNANTSVLDASGSLTATTTPIISGNGTGTNGANSEPTWVHEIFQGILTSETRCLNCETVSSKDENFFDLQVDVDQNTSITHCLRCFSNTETLCSDNKFKCDNCCSYQEAQKRMRVKKLPMILALHLKRFKYMEQFNRHIKVSHRVVFPLELRLFNTSDDAVNPDRLYDLTAVVIHCGSGPNRGHYISIVKSHGLWLLFDDDMVDKIEASTIEDFYGLTSDIHKSSETGYILFYQSRDCA

binding: binds
B2: V5-tagged Drosophila Uaf1 (protein, UniProt Q1LZ08 1-668)
chain: MLTHKTCQARKKMQVSFVIRDAEEKQHRNGVNALQLDANNGKLYSAGRDAIIRVWNTRTDSSEKYIQSMEHHNDWVNDIVLCCNGRNLISASCDTTVKVWNAQKGFCMSTLRTHRDYVQALAYAKDREQVASAGLDKAIFLWDVNTLTALTASNNTVTTSSLTGSKDSIYSLAMNPSGTVIVSGSTENILRIWDPRTCMRRMKLRGHTENVRCLVVSPDGNQVVSGSSDGTIKVWNLGQQRCVQTIHVHKEGVWSLLMSENFQYIISGSRDRNIIVTEMRNPSNKTLVCEEQAPVLSLGYNIDKTGVWATTWNSDIRCWKLPMYDRCTLNSSGGMDAQWTQGGTEVACIKGGAAIKECAVLNDKRYIITKDSQDQVVVYDVLRVVKKEQLGAVDFEAEVKKRNKQVYIPNWFTVDLKTGMPTIVLGQEEVDCFSAWVSIEAGLPECVDPTTEIKINYGKLLLEALLEYWTPPHSIPPNEMEPDMHGNGYFQVPKHTPVIFSEVGGRTVCRLLVRDAAGDSESTLLHETAPQWVTDVVIEKNIPKFLKIPFFLQPHPQMTKPERTKKDRLVANEFIQCRKVCEHVLEKVLNAETTPSGGNANNSLQNSQSDANSEGSQLPAEERIELWCNDVVVDPNMDLRTVRHFIWKQSTDLTFQYKTKQNFNYDGK

From publication PMC10556106
